Experimental data taken from PubChem BioAssay AID1347131 (National Center for Advancing Translational Sciences (NCATS), 2019).
Out of some 410,000 compounds screened, about 2,000 (0.49%) were called active. Inconclusive results, whose numbers are uncertain, are shown with a selection of clear calls. Calls come from the whole dose curve; tested in HEK293 reporter line. A potency beside an inconclusive call is a rough fit, not a confirmed value.

experiment: qHTS Assay for Foot and Mouth Disease Virus Antivirals: Primary Screen against the MLPCN compound library; conditions: FMDV antiviral cell-based qHTS; activity, negative = inhibition: at 57.9 µM (top of the series); note: nearly all actives have a fitted effect of over 55% in size
Potency is the fitted concentration of half-maximal effect.

Row | Structure (SMILES) | Potency | activity, negative = inhibition
1 | CCOc1cc2c3c(c1)C1(Nc4ccccc4S1)C(=O)N3C(C)(C)CC2C (configuration not stated) | inconclusive: 2.24 µM [inhibitor, full curve] | 
2 | COC(=O)CCCCCN1C(=O)NC(c2ccccc2)C(C(=O)OCc2ccccc2)=C1C (configuration not stated) | inconclusive: 28.2 µM [inhibitor, partial curve, poor fit] | 
3 | Cc1ccc(S(=O)(=O)N2[C@@H](c3ccc(F)cc3)C(C(=O)O)=CC[C@H]2c2cccc(Cl)c2)cc1 | inconclusive: 8.91 µM [inhibitor, full curve] | 
4 | COc1cccc(N2CCN(C(=O)c3ccc4c(Cl)c5c(nc4c3)CCCC5)CC2)c1 | inactive | 
5 | NNc1nncc2ccccc12 | inconclusive: 39.8 µM [inhibitor, single point] | 
6 | CCOc1ccc(NC(=O)Nc2cccc(C(=O)O)c2)cc1 | inconclusive: 1.58 µM [inhibitor, full curve, poor fit] | 
7 | CCc1cccc(C)c1NC(=O)c1cc2ccccc2o1 | inactive | 
8 | O=C(CCc1ccc(Oc2cc([N+](=O)[O-])cc([N+](=O)[O-])c2)cc1)NC1CCCC1 | inconclusive: 10 µM [inhibitor, partial curve, poor fit] | 
9 | Cc1ccc(C(=O)Nc2cc(-c3nc4cc(Cl)ccc4o3)ccc2C)c(C)c1 | inactive | 
10 | COc1cc(OC)cc(-c2nnc(NC(=O)c3ccc4c(c3)OCCO4)o2)c1 | inconclusive: 1.41 µM [inhibitor, full curve] | 
11 | CCCCN(CCCC)C(=S)N/N=C/c1c(C)[nH]n(-c2ccccc2)c1=O | inconclusive: 10 µM [inhibitor, partial curve] | 
12 | COc1ccc(CN2CCc3nc(N4CCN(c5ccc(F)cc5)CC4)ncc3C2)c(OC)c1OC | inconclusive: 20 µM [inhibitor, partial curve, poor fit] | 
13 | CCOC(=O)c1cccc(Nc2ncnc3ccccc23)c1 | inconclusive: 39.8 µM [inhibitor, partial curve, poor fit] | 
14 | Cc1ccc(C(=O)COC(=O)c2cccs2)cc1 | inconclusive: 22.4 µM [inhibitor, partial curve, poor fit] | 
15 | CCOC(=O)C1CCN(c2ccc(Cl)nn2)CC1 | inconclusive: 8.91 µM [inhibitor, partial curve] | 
16 | Cc1cccn2c(=O)c(C(=O)N3CCN(c4ccc(Cl)cc4)CC3)cnc12 | inconclusive: 17.8 µM [inhibitor, partial curve, poor fit] | 
17 | COc1ccc(CCn2ccc(O)c(Cc3ccc(Cl)cc3Cl)c2=O)cc1OC | inconclusive: 22.4 µM [inhibitor, partial curve, poor fit] | 
18 | CCOc1ccc(C=NNC(=O)c2cccc3ccccc23)cc1OCC | inactive | 
19 | S=C(Nc1ccc(Nc2ccccc2)cc1)NC1CCCCCC1 | inconclusive: 28.2 µM [inhibitor, partial curve, poor fit] | 
20 | O=[N+]([O-])c1ccc(-[n+]2ccc3ccccc3c2)c([N+](=O)[O-])c1 | inconclusive: 28.2 µM [inhibitor, single point] | 
21 | CCOC1=C2CN(S(=O)(=O)c3ccc(C)cc3)[C@H](c3ccccc3)C[C@@H]2N(S(=O)(=O)c2ccc(C)cc2)[C@H](c2cccc(C)c2)C1 | inactive | 

Some of these compounds in order of length of the SMILES, low to high.
Row | Structure (SMILES) | Potency | activity, negative = inhibition
2 | COC(=O)CCCCCN1C(=O)NC(c2ccccc2)C(C(=O)OCc2ccccc2)=C1C (configuration not stated) | inconclusive: 28.2 µM [inhibitor, partial curve, poor fit] | 
12 | COc1ccc(CN2CCc3nc(N4CCN(c5ccc(F)cc5)CC4)ncc3C2)c(OC)c1OC | inconclusive: 20 µM [inhibitor, partial curve, poor fit] | 
3 | Cc1ccc(S(=O)(=O)N2[C@@H](c3ccc(F)cc3)C(C(=O)O)=CC[C@H]2c2cccc(Cl)c2)cc1 | inconclusive: 8.91 µM [inhibitor, full curve] | 

Next results:

Row | Structure (SMILES) | Potency | activity, negative = inhibition
22 | Cc1cccc(NC(=O)NNC(=O)c2cc(-c3ccccc3Cl)nc3ccccc23)c1 | inconclusive: 39.8 µM [inhibitor, single point] | 
23 | CCOCCn1c(SCCCc2ccccc2)nc2c1c(=O)[nH]c(=O)n2C | inconclusive: 14.1 µM [inhibitor, partial curve] | 
24 | CCn1nc(C(=O)N2CCN(Cc3nc4ccccc4s3)CC2)c2ccccc2c1=O | inconclusive: 39.8 µM [inhibitor, single point] | 
25 | COc1ccc(NC(=O)c2cc(-c3ccccn3)nc3ccccc23)cc1S(=O)(=O)N(C)C | inactive | 
26 | COc1ccccc1CNc1nc(NCc2ccc3occc3c2)c2sccc2n1 | inconclusive: 25.1 µM [inhibitor, partial curve, poor fit] | 
27 | CC(C)C[C@H](N)c1nnc(S(=O)(=O)Cc2ccc(F)cc2)o1 | inconclusive: 22.4 µM [inhibitor, partial curve, poor fit] | 
28 | CC1CCN(c2oc(Cc3cccc4ccccc34)nc2C#N)CC1 | inconclusive: 25.1 µM [inhibitor, single point] | 
29 | Cc1cc(C(=O)CSc2nc3ccccc3[nH]2)c(C)n1Cc1ccco1 | active: 11.2 µM | 
30 | COCCCn1c(=O)/c(=C\c2ccccc2OC(F)F)s/c1=C(/C#N)C(=O)N1CCOCC1 | inconclusive: 22.4 µM [inhibitor, partial curve, poor fit] | 
31 | Cc1c(N=C2C=CC(=O)c3ccccc32)c(=O)n(-c2ccccc2)n1C | inconclusive: 35.5 µM [inhibitor, partial curve, poor fit] | 
32 | CCOc1ccc(Cn2c(=O)oc3ccc(C)cc32)cc1OC | inconclusive: 17.8 µM [inhibitor, partial curve, poor fit] | 
33 | N#Cc1ccc(Sc2nc3ccccc3[nH]2)cc1C#N | inconclusive: 31.6 µM [inhibitor, single point] | 
34 | C=CCc1cccc(CNc2nc3ccccc3n2C(C)C)c1O | inconclusive: 14.1 µM [inhibitor, partial curve] | 
35 | OCc1nc2ccccc2n1CC(O)Cn1ccc2ccccc21 (configuration not stated) | inconclusive: 28.2 µM [inhibitor, partial curve, poor fit] | 
36 | COc1ccc(N2C(=O)CSC23C(=O)N(Cc2cccc(C(F)(F)F)c2)c2ccccc23)cc1 (configuration not stated) | inconclusive: 11.2 µM [inhibitor, partial curve, poor fit] | 
37 | Cc1cc(C)cc(-n2c(SCC(=O)Nc3cccc(F)c3)nc3c([nH]c4ccccc43)c2=O)c1 | inactive | 
38 | CCN(CC)C(=O)CSc1ncnc2sc(-c3ccccc3)cc12 | inconclusive: 39.8 µM [inhibitor, single point] | 
39 | Cn1c(=O)cc(NCCc2ccccc2)[nH]c1=O | inconclusive: 25.1 µM [inhibitor, partial curve, poor fit] | 
40 | COc1ccc(CSC(=N)N)cc1[N+](=O)[O-] |  | inconclusive: -36.9% [inhibitor]
41 | Cc1cc(Br)c(NC(=O)CCNC(=O)OCc2ccccc2)cc1C | inconclusive: 3.98 µM [inhibitor, full curve] | 
42 | COc1ccccc1N1CCN(S(=O)(=O)c2ccc(-c3cc(C(F)(F)F)on3)s2)CC1 | inconclusive: 0.891 µM [inhibitor, full curve, poor fit] | 

An excerpt of these results, as tab-separated lines.
Row	Structure (SMILES)	Potency	activity, negative = inhibition
1	CCOc1cc2c3c(c1)C1(Nc4ccccc4S1)C(=O)N3C(C)(C)CC2C (configuration not stated)	inconclusive: 2.24 µM [inhibitor, full curve]	
27	CC(C)C[C@H](N)c1nnc(S(=O)(=O)Cc2ccc(F)cc2)o1	inconclusive: 22.4 µM [inhibitor, partial curve, poor fit]	
32	CCOc1ccc(Cn2c(=O)oc3ccc(C)cc32)cc1OC	inconclusive: 17.8 µM [inhibitor, partial curve, poor fit]	

Next part

Row | Structure (SMILES) | Potency | activity, negative = inhibition
43 | O=C(CCNC(=O)C1CCN(S(=O)(=O)c2ccccc2)CC1)NCc1cccc(C(F)(F)F)c1 | inconclusive: 15.8 µM [inhibitor, partial curve] | 
44 | COc1cc(OC)c(OC)cc1CN1CCc2nc(N3CCN(c4ncccn4)CC3)ncc2C1 | inactive | 
45 | CCOC(=O)c1c(N)sc(C(=O)Nc2ccc3c(c2)OCO3)c1C | inconclusive: 14.1 µM [inhibitor, single point] | 
46 | COC(=O)/C(=C\c1cc(OC)c(OC)c(OC)c1)c1nc2ccccc2[nH]1 | inconclusive: 15.8 µM [inhibitor, partial curve, poor fit] | 
47 | CN1/C(=C\C(=O)c2ccco2)C(C)(C)c2ccccc21 | inactive | 
48 | COc1cc2nc(Cl)nc(N3CCOCC3)c2cc1OC | inconclusive: 25.1 µM [inhibitor, partial curve, poor fit] | 
49 | CCc1ccc(NC(=O)c2cc3ccccn3n2)cc1 | inconclusive: 11.2 µM [inhibitor, single point] | 
50 | O=C(c1ccc(COc2ccccc2Cl)o1)N1CCN(Cc2ccc3c(c2)OCO3)CC1 | inconclusive: 35.5 µM [inhibitor, partial curve, poor fit] | 
51 | N=c1c(C(=O)NCC2CCCO2)cc2c(=O)n3ccccc3nc2n1Cc1cccnc1 (configuration not stated) | inconclusive: 8.91 µM [inhibitor, partial curve] | 
52 | Cc1nn(C)cc1S(=O)(=O)N1CCN(Cc2cccc(Cl)c2)CC1 | inconclusive: 0.891 µM [inhibitor, full curve] | 
53 | O=S(=O)(c1ccc(S(=O)(=O)N(Cc2ccc(F)cc2)C2CCCC2)cc1)N1CCCC1 |  | inconclusive: -30.2% [inhibitor]
54 | Cn1cnc([N+](=O)[O-])c1Sc1ccccc1 | inconclusive: 28.2 µM [inhibitor, partial curve, poor fit] | 
55 | COc1ccc(CCN(C)C(=O)c2cc(S(=O)(=O)N3CCCCC3)ccc2Cl)cc1OC | inactive | 
56 | CC(C)(C)C(=O)/C(=C/c1ccc(Cl)cc1)n1cncn1 | inconclusive: 15.8 µM [inhibitor, partial curve, poor fit] | 
57 | Cn1c(O)c(/C=C2\N=c3ccccc3=C2CCNC(=S)NC2CC2)c(=O)n(C)c1=O | inconclusive: 12.6 µM [inhibitor, partial curve, poor fit] | 
58 | Cc1c(C(=O)OCCOc2ccccc2)[nH]c2c1C(=O)CCC2 | inconclusive: 15.8 µM [inhibitor, single point] | 
59 | CC1(C)NC(=O)N(CCCCOc2ccc3c(c2)CCC3)C1=O | inactive | 
60 | COc1ccc(N2C(=O)CC(N3CCC(O)(c4ccc(Cl)cc4)CC3)C2=O)cc1 (configuration not stated) | inconclusive: 22.4 µM [inhibitor, single point] | 
61 | CCc1ccc(N2CC(C(=O)N3CCN(S(=O)(=O)c4cccc(F)c4)CC3)CC2=O)cc1 (configuration not stated) | inconclusive: 11.2 µM [inhibitor, partial curve, poor fit] | 
62 | CC(=O)c1c(C)[nH]c(C(=O)OCC(=O)Nc2cc(Cl)ccc2[N+](=O)[O-])c1C | inconclusive: 28.2 µM [inhibitor, partial curve, poor fit] | 
